These are yes or no findings as the source states them, for the method shown. Some binding calls cover weakened binding; strength is not graded here.
T1: series of linear peptides which contain common sequence 150…159 (human)
T1 sequence (peptide): QRQRREMVAQ


What was measured:
[1] = target: monkey ANGPTL8 expressed with C-terminal mouse IgG2a Fc tag (cynomolgus monkey); assay: BLI (Octet HTX), mFc protein captured on AMC sensor, 100 nM mAb, 25 C
[2] = target: T1, series of linear peptides which contain common sequence 150…159 (human); assay: Pepscan ELISA, HiSense linear peptide array, 1 µg/ml antibody

| binding [1] | binding [2] | Binder |
| --- | --- | --- |
| binds | – | H4H15335P (antibody, human IgG4, V domains shown) VH: QVQLVESGGGVVQPGRSLRLSCAASGFTFNNYGIHWVRQAPGKGLEWVAVISYDESNKYYADSVKGRFTISRDNSKNTLYLQMNSLRAEDTAVYYCAKDIRIAARRHYYYYGMDVWGQGTTVTVSS VL: DIQMTQSPSSVSASVGDRVTITCRASQGISRWLAWYQQKPGKAPKLLIYAASSLESGVPARFSGSGSGTDFTLTISSLQPEDFATYYCQQANSFPITFGPGTKVDIK |
| – | binds | H4H15341P (antibody, human IgG4, V domains shown) VH: EVQLVESGGGLVQPGGSLRLSCAASGFTFNNHEMNWVRQAPGKGLEWVSYISSSGNTVTYADFLKGRFTISRDNAKNSLFLQMNSLRDEDTAVYYCARDHLSGTSPLSYWGQGTLVTVSS VL: DIQMTQSPSSLSASVGDRVTITCQASQDINNYLNWFQQKPGKAPKLLIFDASNLETGVPSRFSGSGSGTDFTFTISSLQPEDIATYFCQQYENLPYTFGQGTKLEIK |
